From US20230312449A1, “CARBOXYLIC ACID COMPOUND, AND PREPARATION METHOD THEREFOR AND APPLICATION THEREOF” (BOTREE CYCLING SCI & TECH CO., LTD., priority 2020, published 2023)
Values joined by “and” are separate entries in the source; they are usually repeats but may differ in a detail not shown here. Equal values may be shown once.

Experiments:
[1] = Back extraction performance of Compound BC196 loaded with metal ions
Method: Compound BC196 was dissolved in dodecane and prepared as a 0.33 mol/L organic phase, and the aqueous phase used a 0.02 mol/L Ni^2+ sulfate solution to be a feed solution. The organic 20 phase was saponified with 9 mol/L ammonia, the saponification proportion was 50%, the saponified organic phase extracted the feed solution with a phase ratio of 1:4, the equilibrium time was 15 min and the temperature was 25° C.
The organic phase loaded with Ni was back-extracted with 1 mol/L sulfuric acid aqueous solution, and during the back extraction, the phase ratio was 10:1, and the back extraction rate was more than 99%.

[2] = Extraction of a mixed metal sulfate solution by saponified extractant organic phase (extraction rate E%, separation coefficient β)
Method: In the embodiments of the present application, the metal ion concentration of the aqueous phase is determined by the inductively coupled plasma optical emission spectroscopy (ICP-OES), and the metal ion concentration of the organic phase is calculated by the difference subtraction method.
The distribution ratio D is a ratio of the metal ion content of the equilibrium organic phase to the metal ion content of the equilibrium aqueous phase after the first extraction (the metal ion concentration of the equilibrium aqueous phase is determined by the inductively coupled plasma optical emission spectroscopy (ICP-OES), and the metal ion concentration of the equilibrium organic phase is calculated by the difference subtraction method), i.e.,
D=Corg/Caq=(C′aq−Caq)/Caq (2)
In equation (2), Corg represents the metal ion concentration of the equilibrium organic phase after the first extraction; Caq represents the metal ion concentration of the equilibrium aqueous phase after the first extraction; C′aq represents the metal ion concentration of the aqueous phase before the first extraction.
The extraction rate E is the percentage of the amount of the extracted substance transferred to organic phase from aqueous phase during the extraction process against the total amount of the extracted substances in the original aqueous phase, i.e.,
E=100%×(C′aq−Caq)/C′aq (3)
In equation (3), Caq represents the metal ion concentration of the equilibrium aqueous phase after the first extraction; C′aq represents the metal ion concentration of the aqueous phase before the first extraction.
The separation coefficient β refers to a ratio of the distribution ratios of two substances to be separated in two phases under certain conditions, which is also known as extraction separation factor.
Compound BC196 was dissolved in a diluent, 260 # solvent oil, and prepared as a 0.6 mol/L organic phase, and a mixed sulfate solution was prepared as an aqueous phase, which contained 0.02 mol/L Cu^2+, Zn^2+, Fe^3+, Al^3+, Cd^2+, Ni^2+, Co^2+, Mn^2+, Ca^2+, Mg^2+ and Li^+. The organic phase was firstly saponified by 11.9 mol/L sodium hydroxide aqueous solution with a saponification rate of 0-70%, the initial pH of the aqueous phase remained unchanged at 2.08, and the aqueous phase was extracted by the organic phase with different saponification degree at a volume ratio of 1:1, the equilibrium time was 15 min and the temperature was 25° C.
After extraction, the extraction rate and equilibrium pH were plotted to obtain the extraction rate E%-pH curve of Compound BC196 for each ion.
This comparative example differs from Performance Example 1 in that Compound BC196 was replaced by Extractant CA12 (commercially available, with an acid content of 98%).

[3] = Back extraction performance of Compound BC195 loaded with metal ions
Method: Compound BC195 was dissolved in Escaid 110 and prepared as a 0.16 mol/L organic phase, and a 0.02 mol/L Ni^2+ sulfate solution was prepared as a feed liquid. The organic phase was saponified to a proportion of 50% with 10 mol/L NaOH aqueous solution, and the saponified organic phase extracted the feed solution with a phase ratio of 1:2, the equilibrium time was 15 min and the temperature was 25° C.
The organic phase loaded with Ni was back-extracted with 1 mol/L sulfuric acid aqueous solution, and during the back extraction, the phase ratio was 15:1, and the back extraction rate was more than 99%.

[4] = Equilibrium pH 4.5, 0.6 mol/L in 260 # solvent oil, O:A 1:1, 15 min, 25° C.

CCCCCC(CC)OC(CCCC)C(=O)O (stereo not shown) [Compound BC196]
Ni content of the organic phase loaded with Ni ([1]; 0.33 mol/L in dodecane, saponified 50% with 9 mol/L ammonia, 0.02 mol/L Ni^2+ feed, phase ratio 1:4, 15 min, 25° C.): 0.08 mol/L
back extraction rate ([1]; 1 mol/L sulfuric acid aqueous solution, phase ratio 10:1): more than 99%
Separation Coefficient β Cd^2+/Co^2+ ([2]; Cd^2+, row Co^2+): 6.01
Separation Coefficient β Cd^2+/Li^+ ([2]; Cd^2+, row Li^+): 134.77
Separation Coefficient β Cd^2+/Mg^2+ ([2]; Cd^2+, row Mg^2+): 194.29
Separation Coefficient β Cd^2+/Mn^2+ ([2]; Cd^2+, row Mn^2+): 8.36
Separation Coefficient β Cd^2+/Ni^2+ ([2]; Cd^2+, row Ni^2+): 4.29
Separation Coefficient β Cd^2+/Zn^2+ ([2]; Cd^2+, row Zn^2+): 1.94
Separation Coefficient β Co^2+/Li^+ ([2]; Co^2+, row Li^+): 22.43
Separation Coefficient β Co^2+/Mg^2+ ([2]; Co^2+, row Mg^2+): 32.33
Separation Coefficient β Co^2+/Mn^2+ ([2]; Co^2+, row Mn^2+): 1.39
Separation Coefficient β Cu^2+/Al^3+ ([2]; Cu^2+, row Al^3+): 53.22
Separation Coefficient β Cu^2+/Ca^2+ ([2]; Cu^2+, row Ca^2+): 7.57
Separation Coefficient β Cu^2+/Cd^2+ ([2]; Cu^2+, row Cd^2+): 6.00
Separation Coefficient β Cu^2+/Co^2+ ([2]; Cu^2+, row Co^2+): 36.05
Separation Coefficient β Cu^2+/Li^+ ([2]; Cu^2+, row Li^+): 808.51
Separation Coefficient β Cu^2+/Mg^2+ ([2]; Cu^2+, row Mg^2+): 1165.64
Separation Coefficient β Cu^2+/Mn^2+ ([2]; Cu^2+, row Mn^2+): 50.13
Separation Coefficient β Cu^2+/Ni^2+ ([2]; Cu^2+, row Ni^2+): 25.71
Separation Coefficient β Cu^2+/Zn^2+ ([2]; Cu^2+, row Zn^2+): 11.64
Extraction Rate E % Al^3+ [2, 4]: 26.3%
Extraction Rate E % Ca^2+ [2, 4]: 71.5%
Extraction Rate E % Cd^2+ [2, 4]: 76.0%
Extraction Rate E % Co^2+ [2, 4]: 25-45% and 34.5%
Extraction Rate E % Cu^2+ [2, 4]: 95.0%
Extraction Rate E % Fe^3+ [2, 4]: 90.2%
Extraction Rate E % Li^+ [2, 4]: 2.3%
Extraction Rate E % Mn^2+ [2, 4]: 25-45% and 27.5%
Extraction Rate E % Ni^2+ [2, 4]: 25-45% and 42.5%
Separation Coefficient β Ni^2+/Co^2+ ([2]; Ni^2+, row Co^2+): 1.40
Separation Coefficient β Ni^2+/Li^+ ([2]; Ni^2+, row Li^+): 31.45
Separation Coefficient β Ni^2+/Mg^2+ ([2]; Ni^2+, row Mg^2+): 45.34
Separation Coefficient β Ni^2+/Mn^2+ ([2]; Ni^2+, row Mn^2+): 1.95
Separation Coefficient β Zn^2+/Co^2+ ([2]; Zn^2+, row Co^2+): 3.10
Separation Coefficient β Zn^2+/Li^+ ([2]; Zn^2+, row Li^+): 69.447
Separation Coefficient β Zn^2+/Mg^2+ ([2]; Zn^2+, row Mg^2+): 100.12
Separation Coefficient β Zn^2+/Mn^2+ ([2]; Zn^2+, row Mn^2+): 4.31
Separation Coefficient β Zn^2+/Ni^2+ ([2]; Zn^2+, row Ni^2+): 2.21
Separation Coefficient β Al^3+/Cd^2+ ([2]; column Al^3+, row Cd^2+): 0.11
Separation Coefficient β Al^3+/Co^2+ ([2]; column Al^3+, row Co^2+): 0.68
Separation Coefficient β Al^3+/Li^+ ([2]; column Al^3+, row Li^+): 15.19
Separation Coefficient β Al^3+/Mg^2+ ([2]; column Al^3+, row Mg^2+): 21.90
Separation Coefficient β Al^3+/Mn^2+ ([2]; column Al^3+, row Mn^2+): 0.94
Separation Coefficient β Al^3+/Ni^2+ ([2]; column Al^3+, row Ni^2+): 0.48
Separation Coefficient β Al^3+/Zn^2+ ([2]; column Al^3+, row Zn^2+): 0.22
Separation Coefficient β Ca^2+/Al^3+ ([2]; column Ca^2+, row Al^3+): 7.03
Separation Coefficient β Ca^2+/Cd^2+ ([2]; column Ca^2+, row Cd^2+): 0.79
Separation Coefficient β Ca^2+/Co^2+ ([2]; column Ca^2+, row Co^2+): 4.76
Separation Coefficient β Ca^2+/Li^+ ([2]; column Ca^2+, row Li^+): 106.77
Separation Coefficient β Ca^2+/Mg^2+ ([2]; column Ca^2+, row Mg^2+): 153.93
Separation Coefficient β Ca^2+/Mn^2+ ([2]; column Ca^2+, row Mn^2+): 6.62
Separation Coefficient β Ca^2+/Ni^2+ ([2]; column Ca^2+, row Ni^2+): 3.40
Separation Coefficient β Ca^2+/Zn^2+ ([2]; column Ca^2+, row Zn^2+): 1.54
Separation Coefficient β Mg^2+/Li^+ ([2]; column Mg^2+, row Li^+): 0.69
Separation Coefficient β Mn^2+/Li^+ ([2]; column Mn^2+, row Li^+): 16.13
Separation Coefficient β Mn^2+/Mg^2+ ([2]; column Mn^2+, row Mg^2+): 23.25
extraction sequence ([2]; from FIG. 1 and Table 1): Fe^2+, Cu^2+, Ca^2+, Al^2+, Cd^2+, Zn^2+, Ni^2+, Co^2+, Mn^2+, Mg^2+ and Li^2+
Separation coefficient βNi/Co ([2]; pH 4.5): 1.40
Separation coefficient βNi/Mg ([2]; pH 4.5): 45.34
Separation coefficient βNi/Mn ([2]; pH 4.5): 1.95
Separation coefficient βNi/Zn ([2]; pH 4.5): 2.21
separation coefficients for each ion higher compared with CA12 ([2]; same test condition): 20-30%

CCCCCCC(OCC(CC)CCCC)C(=O)O (stereo not shown) [Compound BC195]
Ni content of the organic phase loaded with Ni ([3]; 0.16 mol/L in Escaid 110, saponified 50% with 10 mol/L NaOH, 0.02 mol/L Ni^2+ feed, phase ratio 1:2, 15 min, 25° C.): 0.04 mol/L
back extraction rate ([3]; 1 mol/L sulfuric acid aqueous solution, phase ratio 15:1): more than 99%
